Assay results taken from PMC6208484.
Results are given in words; binding and its absence hold for the method and conditions named. Binding seen in cells or lysates may run through a third protein. For some assays here: A result given as binding can be weak or reduced; the word gives no strength. Sequences can lack the tags named with a protein.

Experiments:
[1] = biological target: HA-NS5B (HCV NS5B) (hepatitis C virus); assay: co-IP; lysate of 293T cells transfected with pFlag-RBM24 and pHA-NS5A, or pFlag-RBM24 and pHA-NS5B
[2] = biological target: HA-Core (HCV Core protein) (hepatitis C virus); assay: co-IP; 293T cells co-transfected with Flag-RBM24 and HA-Core or HA-NS3/4A; lysates precipitated with anti-HA mouse monoclonal antibody or control IgG in the presence of RNase A (20 ug/mL, overnight, 4 C); blots with anti-HA and anti-[…]

B1: Flag-RBM24 (RNA binding motif protein 24) (protein, UniProt Q9BX46-1 1-236)
chain: MHTTQKDTTYTKIFVGGLPYHTTDASLRKYFEVFGEIEEAVVITDRQTGKSRGYGFVTMADRAAAERACKDPNPIIDGRKANVNLAYLGAKPRIMQPGFAFGVQQLHPALIQRPFGIPAHYVYPQAFVQPGVVIPHVQPTAAAASTTPYIDYTGAAYAQYSAAAAAAAAAAAYDQYPYAASPAAAGYVTAGGYGYAVQQPITAAAPGTAAAAAAAAAAAAAFGQYQPQQLQTDRMQ
With B1 the binding [1] was “no binding” and the binding [2] was “binds”.
